No constants are given. Whether binding was seen depends on the method and setting. Binding seen in cells or lysates may run through a third protein. Some entries that bind do so weakly or less than the wild type.
Experiments:
[1] = target: CK1δ, endogenous in MDA-MB-231 (human (endogenous in MDA-MB-231)) (UniProt P48730); assay: co-IP; endogenous proteins of unmanipulated MDA-MB-231 cells; RIPA lysate; IgG or anti-CK1δ antibody with protein G beads, 4 °C overnight; immunoblot
LRP6-V5 (human) = LRP6-V5 (human) (UniProt O75581); assay: co-IP; HEK293T transfected with tagged proteins; RIPA lysate; anti-Flag or anti-V5 agarose beads, 4 °C overnight; four washes with RIPA; immunoblot; for CK1δ-V5 and CK1ε-V5 with or without co-expressed TMEM97-Flag
[2] = target: LRP6, endogenous in HEK293T (human (endogenous in HEK293T)) (UniProt O75581); assay: co-IP; endogenous proteins of HEK293T (untransfected, or transfected with TMEM97-Flag); RIPA lysate; control IgG or anti-LRP6, anti-CK1δ or anti-CK1ε antibody with protein G beads, 4 °C overnight; immunoblot

By UniProt entry, the sequences of proteins in these tests, tags left out. Where a name states a change or a piece, a line headed by the entry shows the natural chain unless it says otherwise. Residues count along the entry.
UniProt P48730: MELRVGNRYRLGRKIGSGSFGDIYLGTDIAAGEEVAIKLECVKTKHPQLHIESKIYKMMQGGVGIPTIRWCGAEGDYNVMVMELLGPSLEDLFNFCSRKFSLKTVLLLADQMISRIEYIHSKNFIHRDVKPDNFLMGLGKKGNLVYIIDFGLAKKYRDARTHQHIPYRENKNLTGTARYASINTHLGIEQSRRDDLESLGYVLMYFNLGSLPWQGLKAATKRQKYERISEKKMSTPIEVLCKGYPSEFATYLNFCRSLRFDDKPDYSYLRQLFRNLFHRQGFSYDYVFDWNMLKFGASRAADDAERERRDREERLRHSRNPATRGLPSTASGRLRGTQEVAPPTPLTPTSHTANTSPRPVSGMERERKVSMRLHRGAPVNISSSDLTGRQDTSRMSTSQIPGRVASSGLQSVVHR
UniProt O75581, residues 20-1613: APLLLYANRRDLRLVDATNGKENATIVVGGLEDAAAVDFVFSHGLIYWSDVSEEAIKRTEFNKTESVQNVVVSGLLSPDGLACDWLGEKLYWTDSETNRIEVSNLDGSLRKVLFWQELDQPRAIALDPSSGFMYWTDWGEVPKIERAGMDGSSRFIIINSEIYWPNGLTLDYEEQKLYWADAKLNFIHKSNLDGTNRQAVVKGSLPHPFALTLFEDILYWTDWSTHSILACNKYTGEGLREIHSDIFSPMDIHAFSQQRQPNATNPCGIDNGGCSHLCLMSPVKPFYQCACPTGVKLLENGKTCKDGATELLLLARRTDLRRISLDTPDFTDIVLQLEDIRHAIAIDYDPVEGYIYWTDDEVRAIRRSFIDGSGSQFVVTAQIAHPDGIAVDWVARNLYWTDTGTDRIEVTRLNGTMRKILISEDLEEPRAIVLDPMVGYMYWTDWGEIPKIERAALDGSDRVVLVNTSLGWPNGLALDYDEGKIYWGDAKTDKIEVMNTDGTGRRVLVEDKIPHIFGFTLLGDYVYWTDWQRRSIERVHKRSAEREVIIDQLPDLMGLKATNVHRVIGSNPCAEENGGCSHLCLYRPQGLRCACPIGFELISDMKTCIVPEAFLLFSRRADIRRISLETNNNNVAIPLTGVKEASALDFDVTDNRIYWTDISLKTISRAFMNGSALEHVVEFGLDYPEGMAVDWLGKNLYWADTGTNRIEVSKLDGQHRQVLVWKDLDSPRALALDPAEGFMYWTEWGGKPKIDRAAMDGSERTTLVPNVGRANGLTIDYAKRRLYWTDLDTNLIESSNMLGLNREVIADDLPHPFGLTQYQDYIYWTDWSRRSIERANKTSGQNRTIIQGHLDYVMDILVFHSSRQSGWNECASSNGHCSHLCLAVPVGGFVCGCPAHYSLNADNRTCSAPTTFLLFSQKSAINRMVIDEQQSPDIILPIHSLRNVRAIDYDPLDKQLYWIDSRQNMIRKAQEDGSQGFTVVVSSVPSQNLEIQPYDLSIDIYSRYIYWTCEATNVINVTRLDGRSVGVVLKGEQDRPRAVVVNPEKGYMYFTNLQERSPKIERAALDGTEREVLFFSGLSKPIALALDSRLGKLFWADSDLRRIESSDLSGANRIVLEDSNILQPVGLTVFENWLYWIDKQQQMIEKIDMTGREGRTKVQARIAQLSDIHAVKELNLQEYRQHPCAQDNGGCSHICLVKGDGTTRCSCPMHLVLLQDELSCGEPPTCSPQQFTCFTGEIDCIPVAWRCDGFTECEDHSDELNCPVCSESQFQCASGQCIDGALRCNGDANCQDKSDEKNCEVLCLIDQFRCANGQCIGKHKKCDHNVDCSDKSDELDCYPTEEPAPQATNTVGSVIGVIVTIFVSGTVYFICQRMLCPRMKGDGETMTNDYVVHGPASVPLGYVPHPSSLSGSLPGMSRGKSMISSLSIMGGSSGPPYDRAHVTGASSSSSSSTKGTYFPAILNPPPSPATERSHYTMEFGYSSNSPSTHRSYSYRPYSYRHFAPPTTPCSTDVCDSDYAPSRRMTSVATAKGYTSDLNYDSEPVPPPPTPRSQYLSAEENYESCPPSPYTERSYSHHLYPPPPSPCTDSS
UniProt Q5BJF2: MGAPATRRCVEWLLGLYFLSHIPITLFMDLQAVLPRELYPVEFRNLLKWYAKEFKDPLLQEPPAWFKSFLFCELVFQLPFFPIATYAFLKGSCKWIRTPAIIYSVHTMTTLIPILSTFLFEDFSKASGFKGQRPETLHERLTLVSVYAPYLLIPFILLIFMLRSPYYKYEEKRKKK

With “TMEM97, endogenous in MDA-MB-231 (from UniProt Q5BJF2 1-176)” the binding [1] was “binds”.

In the case of TMEM97-Flag (from UniProt Q5BJF2 1-176), the binding (LRP6-V5 (human)) is reported as “binds”.

In the case of “Transmembrane protein 97 (TMEM97), endogenous in HEK293T (from UniProt Q5BJF2 1-176)”, the binding [2] is reported as “binds”.

Reference: article PMC8494741
